Among the data in publication PMC5007031 are binding values, retold here.

The chains behind the UniProt entries cited, without tags or fusion partners.
UniProt Q0VGT2: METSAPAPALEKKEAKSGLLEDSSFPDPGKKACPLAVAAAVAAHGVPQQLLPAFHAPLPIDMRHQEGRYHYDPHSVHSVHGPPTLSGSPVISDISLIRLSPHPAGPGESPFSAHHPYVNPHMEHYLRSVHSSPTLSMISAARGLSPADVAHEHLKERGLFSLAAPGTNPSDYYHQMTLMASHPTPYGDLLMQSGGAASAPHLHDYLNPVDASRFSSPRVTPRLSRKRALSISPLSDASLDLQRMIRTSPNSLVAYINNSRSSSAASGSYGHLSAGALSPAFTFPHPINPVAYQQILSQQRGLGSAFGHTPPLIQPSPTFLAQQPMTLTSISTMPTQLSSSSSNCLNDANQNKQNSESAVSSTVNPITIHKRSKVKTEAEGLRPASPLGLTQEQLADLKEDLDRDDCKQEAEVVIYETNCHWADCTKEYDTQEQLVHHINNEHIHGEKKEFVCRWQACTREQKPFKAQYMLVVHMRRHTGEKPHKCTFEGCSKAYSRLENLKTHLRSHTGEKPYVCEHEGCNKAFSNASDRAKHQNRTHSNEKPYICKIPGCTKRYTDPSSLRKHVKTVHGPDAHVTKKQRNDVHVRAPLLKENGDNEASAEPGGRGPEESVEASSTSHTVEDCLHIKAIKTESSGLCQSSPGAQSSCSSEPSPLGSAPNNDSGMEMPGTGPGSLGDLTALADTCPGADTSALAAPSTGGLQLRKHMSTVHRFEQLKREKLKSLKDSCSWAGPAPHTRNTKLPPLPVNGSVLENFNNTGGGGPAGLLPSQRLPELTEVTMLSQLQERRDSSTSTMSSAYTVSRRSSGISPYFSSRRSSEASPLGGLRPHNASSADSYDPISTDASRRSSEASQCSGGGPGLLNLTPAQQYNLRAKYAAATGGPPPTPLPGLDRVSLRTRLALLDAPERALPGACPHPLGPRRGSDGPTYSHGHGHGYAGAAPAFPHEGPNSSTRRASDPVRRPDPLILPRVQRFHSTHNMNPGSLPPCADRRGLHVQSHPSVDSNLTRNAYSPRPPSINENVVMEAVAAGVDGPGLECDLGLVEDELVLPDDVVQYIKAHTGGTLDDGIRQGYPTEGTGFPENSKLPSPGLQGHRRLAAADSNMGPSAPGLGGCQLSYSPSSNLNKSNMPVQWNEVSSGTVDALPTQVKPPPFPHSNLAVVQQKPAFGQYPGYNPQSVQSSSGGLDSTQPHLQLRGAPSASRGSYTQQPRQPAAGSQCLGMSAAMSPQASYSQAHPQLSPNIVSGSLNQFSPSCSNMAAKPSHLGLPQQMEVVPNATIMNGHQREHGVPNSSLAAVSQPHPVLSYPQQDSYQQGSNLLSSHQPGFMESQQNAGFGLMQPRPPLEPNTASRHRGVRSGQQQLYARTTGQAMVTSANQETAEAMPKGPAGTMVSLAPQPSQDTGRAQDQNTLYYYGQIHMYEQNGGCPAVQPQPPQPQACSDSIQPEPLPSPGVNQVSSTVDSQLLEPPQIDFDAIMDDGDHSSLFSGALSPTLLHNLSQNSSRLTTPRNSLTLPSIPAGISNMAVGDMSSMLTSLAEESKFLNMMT
UniProt Q92973: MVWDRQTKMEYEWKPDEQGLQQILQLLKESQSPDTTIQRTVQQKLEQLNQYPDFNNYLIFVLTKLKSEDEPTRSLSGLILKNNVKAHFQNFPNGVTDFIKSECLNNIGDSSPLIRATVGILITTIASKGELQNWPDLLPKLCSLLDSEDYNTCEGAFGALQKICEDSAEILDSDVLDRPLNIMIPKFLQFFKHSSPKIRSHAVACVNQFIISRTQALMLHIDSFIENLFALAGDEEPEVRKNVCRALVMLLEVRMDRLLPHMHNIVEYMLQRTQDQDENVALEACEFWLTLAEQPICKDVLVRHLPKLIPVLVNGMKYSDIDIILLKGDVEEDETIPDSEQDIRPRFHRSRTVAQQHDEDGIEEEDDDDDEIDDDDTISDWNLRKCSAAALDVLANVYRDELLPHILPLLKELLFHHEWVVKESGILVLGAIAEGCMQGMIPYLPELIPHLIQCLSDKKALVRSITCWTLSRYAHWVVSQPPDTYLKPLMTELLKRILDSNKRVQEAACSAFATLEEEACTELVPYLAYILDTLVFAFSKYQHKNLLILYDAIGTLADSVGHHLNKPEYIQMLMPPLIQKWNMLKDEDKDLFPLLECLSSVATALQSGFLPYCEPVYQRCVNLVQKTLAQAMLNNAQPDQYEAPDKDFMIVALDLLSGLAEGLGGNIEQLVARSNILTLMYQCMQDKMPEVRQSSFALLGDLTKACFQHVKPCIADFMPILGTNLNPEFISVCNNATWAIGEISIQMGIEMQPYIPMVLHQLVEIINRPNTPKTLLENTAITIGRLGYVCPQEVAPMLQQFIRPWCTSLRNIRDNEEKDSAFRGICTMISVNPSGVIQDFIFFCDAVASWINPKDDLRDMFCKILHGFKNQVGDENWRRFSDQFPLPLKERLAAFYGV

These are yes or no findings as the source states them, for the method shown. Binding seen in cells or lysates may run through a third protein. Some binding calls cover weakened binding; strength is not graded here.

In this test the target is GFP-Mm_Gli2 (GLI-family zinc finger-2, Mus musculus), expressed from pEGFP-C in HEK293FT (Mus musculus) (UniProt Q0VGT2). In words: co-IP; GFP-Gli2 precipitated with GFP-Trap beads from lysates of transfected HEK293FT; 10 mM Tris/HCl pH 7.5, 150 mM NaCl, 0.5 mM EDTA, 0.1% Triton X-100; 4°C, 2 h; endogenous importins detected by western blot. For orientation: In western blotting, separated proteins are transferred to a membrane and probed.

As to “Imp-β2 (importin-β2), endogenous in HEK293FT (from UniProt Q92973 1-898)”, the binding result is “binds”.
